This note sets out measurements from patent publication EP4644419A1.

By UniProt entry, the sequences of proteins in these tests, tags left out. Where a name states a change or a piece, a line headed by the entry shows the natural chain unless it says otherwise.
UniProt Q6DKI7: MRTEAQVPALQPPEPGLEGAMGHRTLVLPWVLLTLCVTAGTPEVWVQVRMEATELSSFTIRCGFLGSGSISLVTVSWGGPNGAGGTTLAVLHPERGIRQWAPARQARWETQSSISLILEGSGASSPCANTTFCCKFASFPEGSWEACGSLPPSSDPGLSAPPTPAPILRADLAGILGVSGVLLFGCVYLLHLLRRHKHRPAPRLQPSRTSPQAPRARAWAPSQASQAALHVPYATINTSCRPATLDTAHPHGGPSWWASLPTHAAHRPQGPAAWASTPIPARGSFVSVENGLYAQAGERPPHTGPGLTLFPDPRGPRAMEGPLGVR

Results are given in words; binding and its absence hold for the method and conditions named. Binding calls can cover weak binding; strength is not graded here.

The target in assay [1] is human CD112R antigen protein huCD112R-His (Acro Biosysterm, PVG-H52H4) (human) (UniProt Q6DKI7). Description: ELISA, huCD112R-His coated on plate. In general terms: ELISA stands for enzyme-linked immunosorbent assay.
Assay [2] concerns the target monkey antigen protein (monkey CD112R, Uniprot ID: A0A2K5WVV8) (monkey). Description: ELISA, monkey antigen protein.

B1: C8 (antibody, human IgG1, kappa, V domains shown)
VH: EVQLVASGGGLVKPGGSLKLSCAASGFTFSDYYMFWVRQTPEKRLEWVATISDGGGYIYYPDSVKGRFTISRDNDRNSLYLQMSSLKSEDTAIYYCGREDFWGQGTSVTVSS
VL: DIQMTQSPSSLSASLGERVSLTCRASQDIGRSLNWLQQEPDGSVRRLIYATSRLDSGVPKRFSGSRSGSDYSLTISSLESEDFVDYYCLQYASFPYTFGGGTKLEIKR
B1: the binding result in assay [1] and in assay [2] was “binds” each time.

B2: C12 (antibody, human IgG1, kappa, V domains shown)
VH: EVQLVASGGGLVKPGGSLKLSCAASGFTFSDYYMYWVRQTPEKRLEWVATISDGGGYTYYPDSVKGRFTISRDNDRNSLYLQMSSLKSEDTAMYYCGREDLWGQGTSVTVSS
VL: DIQMTQSPSSLSASLGERVSLTCRASQDIGSSLNWLQQEPDGTVKRLIYATSRLDSGVPKRFSGSRSGSDYSLTISSLESEDFVDYYCLQYASFPYTFGGGTKLEIKR
B2: the binding entry in assay [1] and in assay [2] was “binds” each time.

B3: C152 (antibody, human IgG1, kappa, V domains shown)
VH: QVQLQQSGTILARPGASVKMSCRASDYTFTDYWIQWIKQRPGQGLEWIGAIFPENGDTRYTQKFKGRATLTADKSSSTAYMQVNSLTSEDSAVYYCATFINYVDYWGQGTTLTVSS
VL: QIVLIQSPAIMSASPGEKVTMTCSASSSVNNIHWYQQKSGTSPKRWIYDTTKLTSGVPARFSGSGSGTSYSLTISSMEAEDAATYYCQQWNINPYTFGGGTKLEIKR
For the molecule B3, the binding entry in assay [1] and in assay [2] was “binds” throughout.

B4: C125 (antibody, human IgG1, kappa, V domains shown)
VH: EVKLVESGGGLVQPGGSLKLSCAASGFTFSSYTMSWVRQTPEKRLELVAELSNSGGSFHYPDNVKGRFTISRDNAKNTLYLQMSSLKSEDTAMYYCARHNWDVYAMDYWGQGTSVTVSS
VL: DIQMSQSPASLSASVGETVTITCRASENVNSYLAWYQQKQGRSPQFLVYNAQTLAEGVPSRFSGGGSGTQFSLKINSLQPEDFGSYYCQHHYGNPTFGGGTKLEIKR
With B4, the binding entry in assay [1] and in assay [2] was “binds” each time.

B5: C146 (antibody, human IgG1, kappa, V domains shown)
VH: EVQLQQSGPELVKPGSSVKISCEASGYTFADYNVDWVKQSHGKSLEWIGAINPNDGGTSYNQKFEGKATLTVDKSSTTVYMELRSLTSEDSAVYYCARWVNNDWYFDVWGTGTTVTVSS
VL: DIVMTQSQKFMSTSVGDRVSITCKASQNVRSAVDWYQQKPGQSPKTLIHSASSRHTGVPDRFTGSGSGTDFTLTISNIQSEDLADYFCLQHWNYPYTFGGGTKLEVKR
In the case of B5, the binding result in assay [1] and in assay [2] was “binds” throughout.

B6: C1 (antibody, human IgG1, kappa, V domains shown)
VH: QVHLQQSGPELVKPGASLKISCKASGYTFTDYYLNWVKQRPGQGLEWIGWIFPGSESTFYNEKFKGKATLTVDKSSSTAYMLLNSLTSEDSAVYFCTRDGGLRGPFDYWGQGTTLTVSS
VL: DIQLTQSPSSLSASLGGKVTITCKASQDINKYIAWCQHKPGKGPRLLIHYTSTLHPGIPSRFSGSGSGRDYSFSISNLEPEDSATYYCLQYDYLLTFGGGTKLEIKR
As for B6, the binding entry in assay [1] and in assay [2] was “binds” in each case.

B7: C6 (antibody, human IgG1, kappa, V domains shown)
VH: QVHLHQSGPELVKPGASVKISCKASGYTFTAYYINWVKQRPGQGLEWIGWIFPGSDSTYYNEKFKGRATLTVDKSSSTAYMLLNSLTSEDSAVYFCARDGELRGPFDYWGQGTTLTVSS
VL: DIQMTQSPSSLSASLGGKVTITCKASQDINKYIAWYQHKPGKSPRLLIHYTSTLQAGIPSRFSGSGSGRDYSFSISNLEPEDSATYYCLQYDNLLTFGGGTKLEIKR
As to B7, the binding entry in assay [1] and in assay [2] was “binds” in each case.

B8: C3 (antibody, human IgG1, kappa, V domains shown)
VH: QVQLQQSGPELVKPGASVKISCRSSGYTFTDYYINWVKQRPGQGLEWIGWIFPGSDYTYYNEKFKGKATLTVDKSSTTAYMLLSSLTSEDSAVYFCARDGGLRGPFDYWGQGTTLTVSS
VL: DIQMTQSPSSLSASLGGKVTITCKASQDINKYIAWYQQKPGKGPRLLIHYTSTLQPGIPSRFSGSGSGRNSSFSISNLEPEDIATYYCLQYDNLHTFGGGTKLEIKR
Regarding B8, the binding result in assay [1] and in assay [2] was “binds” throughout.

B9: C145 (antibody, human IgG1, kappa, V domains shown)
VH: EVQLQQSGPEVVKPGASVRISCKASGNTFTDFFINWVKQSHGKSLEWIGDVNPDSNGANYNQKFKGKATLTVDKSSGTAFMGLRSLTSEDSAVYYCATLFFDNWGQGTTLTVSS
VL: DIVMTQSPSSLNVSAGEKVTMSCKSSQSLLNSGNQKNYLAWYQQKPGQPPKLLIYGASTRESGVPDRFTGSGSGTDFILTISSVQAEDLALYYCQNAHSSPYTFGGGTKLEIKR
As to B9, the binding entry in assay [1] and in assay [2] was “binds” throughout.

B10: C13 (antibody, human IgG1, kappa, V domains shown)
VH: EVQLQQSGPELVKPGASVKISCKASGYTFTDYFMNWVKQSHGKSLEWIGDINPNNGSPNYNQKFKGRATLTVDKSSSTAYMELRSLTSEDSAVYYCASGYFDVWGTGTTVTVSS
VL: DIVMTQSPSSLSVSAGEKVTMSCKSSQSLLNSGTQKNYLAWYQQKPGQPPKLLIYGASTRESGVPDRFTGSGSGTDFTLTISSVQAEDLAVYYCQNDHSYPWTFGGGTKLEIKR
Turning to B10, the binding entry in assay [1] and in assay [2] was “binds” in each case.

B11: C11 (antibody, human IgG1, kappa, V domains shown)
VH: EVQLQQSGPELVKPGASVKISCKASGYTFTDYFMNWVRQSHGKSLEWIGDIHPNNGSPNYNQKFKGKATLTVGKSSSTAYMELRSLTSEDSAVYYCATGYFDVWGTGTTVTVSS
VL: DIVMTQSPSSLSVSAGEKVTMSCKSSQSLLNSGNQKNYLAWYQQKPGQPPKLLIYGASTRESGVPDRFTGSGSGTDFTLTISSVQAEDLAVYYCQNDHSYPWTFGGGTKLEIKR
For B11, the binding entry in assay [1] and in assay [2] was “binds” each time.

B12: C7 (antibody, human IgG1, kappa, V domains shown)
VH: EVQLQQSGPELVKPGASVKISCKASGYTLTDYYMNWVKQSHGKSLEWIGDINPNNGGTNFNQKFKGKATLTIDKSSSTTYMELRSLTSEDSAVYYCASLFFDYWGQGTTLTVSS
VL: DIVMTQSPSSLSVSAGEKVTMSCKSSQSLLNSGNQKNYLAWYQQKPGQPPKLLIYGASTRESGVPDRFTGSGSGTDFTLTISSVQAEDLALYYCQNAHSSPYTFGGGTKLEIKR
As to B12, the binding entry in assay [1] and in assay [2] was “binds” each time.

B13: C4 (antibody, human IgG1, kappa, V domains shown)
VH: EVQLQQSGPELVKPGASVKISCKASGYTFTDYFMNWVKQSHGKSLEWIGDIIPNNDSPNYNQKFKGKATLTVDKSSNTAYMELRSLTSEDSAVYYCASGYFDVWGTGTTVTVSS
VL: DIVMTQSPSSLSVSAGEKVTMSCKSSQSLLNSGNQKNFLAWYQQKPGQPPKLLIYGTSTRESGVPDRFTGSGSGTDFTLTISSVQAEDLAVYYCQNDHSYPWTFGGGTKLEIKR
Consider B13, for which the binding result in assay [1] and in assay [2] was “binds” throughout.

B14: C136 (antibody, human IgG1, kappa, V domains shown)
VH: DVQLVESGGGLVKPGGSLKLSCAASGFSFSENYMYWVRQTPEKRLEWVATISDGASYTYYPDNVKGRFTISRDTAKNNLYLQMSHLKSEDTAMYYCTRDELIAPFAYWGQGTLVTVSA
VL: DIVMTQSHKFMSTSVGDRVSITCKASQDVGTAVAWFQQKPGQSPKLLIYWASTRHTGVPDRFTGSGSGTDFTLTISNVQSEDLADYFCQQYNSYPWTFGGGTKLEIKR
Consider B14, for which the binding entry in assay [1] and in assay [2] was “binds” throughout.

B15: C9 (antibody, human IgG1, kappa, V domains shown)
VH: EVQLQQSGAELVKPGASVKLSCTASGFNIKDIYMHWLKQRPEQGLEWIGRIDPTNGNSEYDPRFRGKATLTADTSSNIAYLQLSSLTSEDTAVYYCARFGIYPYFDYWGQGTTLTVSS
VL: GIVMTQTPKFLLVSAGDRVTITCKASQSVNKAVVWYQQKPGQSPKLLISYASNRYTGVPDRFTGSGYGTDFTFSISTVQAEDLAVYFCQQDYSSPWTFGGGTKLEIKR
Consider B15, for which the binding result in assay [1] and in assay [2] was “binds” each time.

B16: C123 (antibody, human IgG1, kappa, V domains shown)
VH: EVQLVESGGGLVKPGGSLKLSCAASGFTFSNFAMSWVRQTPAMRLESVATIVNGGINTYYPDTVKGRFTVSRDNAKNTLYLQMSSLRSEDTAIYYCARHDDFLYYAMDYWGQGTSVTVSS
VL: QIVLTQSPAIMSASPGEKVTMTCSASSSVSYMFWYQQKPGSSPRLLIYDTSNLASGVPVRFSGSGSGTSYSLTISRLEAEDAATYYCQQWTSYPLTFGAGTKLDLKR
On to B16, for which the binding entry in assay [1] and in assay [2] was “binds” in each case.

B17: C143 (antibody, human IgG1, kappa, V domains shown)
VH: EVQLVESGGGLVKPGGSLKLSCAASGFTFSNFAMSWVRQTPAMRLESVATIVNGGINTYYPDTVKGRFTVSRDNAKNTLYLQMSSLRSEDTAIYYCARHDDFLYYAMDYWGQGTSVTVSS
VL: QIVLTQSPAIMSASPGEKVTMTCSASSSVNYMFWYQQKPGSSPRLLIYDTSNLASGVPVRFSGSGSGTSYSLTISRLEAEDAATYYCQQWTSYPLTFGAGTKLDLKR
On to B17, for which the binding entry in assay [1] and in assay [2] was “binds” each time.

B18: C138 (antibody, human IgG1, kappa, V domains shown)
VH: EVQLVESGGGLVKPGGSLKLSCAASGFTFSSYAMSWVRQTPAKRLEWVATITSGDIRTYYPDTVKGRFTISRDNAKNTLYLQMRSLRSEDTAMYYCVGHDDFHFYAMDYWGQGTSVTVSS
VL: QIVLTQSPAIMSASPGEKVTMTCSASSSVSYLYWYQQKPGSSPRLLIYDTSNLASGVPVRFSGSGSGTSYSLTLSRMEAEDAATYYCQQWSSYPLTFGAGTKLELKR
On to B18, for which the binding entry in assay [1] and in assay [2] was “binds” in each case.

B19: C124 (antibody, human IgG1, kappa, V domains shown)
VH: EVQLVESGGGLVKPGGSLKLSCAASGFTFSSFAMSWVRQTPAKRLESVATINNGGINTYYPDTVKGRFTVSRDNAKNTLYLQMSSLRSEDTAMYYCARHDDFLYYAMDYWGQGTSVTVSS
VL: QIVLTQSPAIMSASPGEKVTMTCSASSSVSYMYWYQQKPGSSPRLLIYDTSNLASGVPVRFSGSGSGTSYSLTISRMEAEDAATYYCQQWTSYPLTFGAGTKLELKR
As to B19, the binding entry in assay [1] and in assay [2] was “binds” in each case.
